Here are results for 40 compounds from ChEMBL document CHEMBL4513141, “CO-ADD screening of NIH (USA) - Clinical Collection” (2021).

Some of the results follow. Results with a measured potency or affinity are listed apart.

The subject of this experiment is Acinetobacter baumannii. The note with it: Concentration 20 uM; ASSAY_TEST Inhibition of Bacterial Growth; detection method Absorption (OD600); MEDIA CAMHB; plate type 384well; NBS; CORNING #3640; time 18 hr.
As to `CC(=O)OCC(=O)[C@@]1(O)CC[C@H]2[C@@H]3C[C@H](C)C4=CC(=O)C=C[C@]4(C)[C@H]3[C@@H](O)C[C@@]21C` [METHYLPREDNISOLONE ACETATE], the Inhibition (usually the percentage by which the read-out fell short of the control) was determined as 10.16%.
With `CCCCC(=O)N(Cc1ccc(-c2ccccc2-c2nnn[nH]2)cc1)[C@H](C(=O)O)C(C)C`, the Inhibition is 5.64%.
Compound `CN1CCC(=C2c3ccccc3CCc3sccc32)CC1.O=C(O)/C=C\C(=O)O` had an Inhibition of 24.13%.
`CCOC(=O)C1=C(C)NC(C)=C(C(=O)OC)C1c1cccc(Cl)c1Cl` (stereo not given) [FELODIPINE] displayed an Inhibition of 21.16%.
Regarding `O=C([O-])Cc1ccccc1Nc1c(Cl)cccc1Cl.[Na+]` [DICLOFENAC SODIUM], the Inhibition came out at 11.66%.
`C=C[C@H]1CN2CC[C@H]1C[C@@H]2[C@@H](O)c1ccnc2ccc(OC)cc12` [QUINIDINE] gave an Inhibition of 15.14%.
Consider `O=C1Nc2ccc(Cl)cc2[C@@](C#CC2CC2)(C(F)(F)F)O1` [EFAVIRENZ], for which the Inhibition was 17.76%.
The compound `COC1=CC(=O)C[C@@H](C)[C@]12Oc1c(Cl)c(OC)cc(OC)c1C2=O` [GRISEOFULVIN] registered an Inhibition of 27.35%.
For the compound `COc1cc(N)c(Cl)cc1C(=O)N[C@@H]1CCN(CCCOc2ccc(F)cc2)C[C@@H]1OC.O` [(R,S)-CISAPRIDE MONOHYDRATE], the Inhibition was determined as 3.65%.
`CS(=O)(=O)O.Cc1ccc(NC(=O)c2ccc(CN3CCN(C)CC3)cc2)cc1Nc1nccc(-c2cccnc2)n1` [IMATINIB MESYLATE] showed an Inhibition of 20.85%.
As for `CCCC(CCC)C(=O)O` [VALPROIC ACID], the Inhibition is reported as 7.03%.
The compound `CN(C)CC[C@@H](c1ccc(Cl)cc1)c1ccccn1.O=C(O)/C=C\C(=O)O` [DEXCHLORPHENIRAMINE MALEATE] displayed an Inhibition of 8.4%.
`CCc1ccc(CCOc2ccc(CC3SC(=O)NC3=O)cc2)nc1.Cl` (stereo not given) [PIOGLITAZONE HYDROCHLORIDE]: the Inhibition turned out to be 5.47%.
`C[C@H]1O[C@@H](O[C@H]2[C@@H](O)C[C@H](O[C@H]3[C@@H](O)C[C@H](O[C@H]4CC[C@@]5(C)[C@H](CC[C@@H]6[C@@H]5C[C@@H](O)[C@]5(C)C(C7=CC(=O)OC7)CC[C@]65O)C4)O[C@@H]3C)O[C@@H]2C)C[C@H](O)[C@@H]1O` (stereo not given in full) came in with an Inhibition of 15.68%.
Turning to `COc1ccccc1OCCNCC(O)COc1cccc2[nH]c3ccccc3c12` (stereo not given) [CARVEDILOL], the Inhibition came to 34.02%.
Compound `CC(C)c1nc(CN(C)C(=O)N[C@H](C(=O)N[C@@H](Cc2ccccc2)C[C@H](O)[C@H](Cc2ccccc2)NC(=O)OCc2cncs2)C(C)C)cs1` [RITONAVIR] registered an Inhibition of 28.09%.
`Cl.O.OC[C@H]1O[C@@H](n2cnc3c(N[C@H]4CCC[C@@H]4O)ncnc32)[C@@H](O)C1O` (stereo not given in full) showed an Inhibition of 18.05%.
In the case of `CC(C)[C@H]1CC[C@H](C(=O)N[C@H](Cc2ccccc2)C(=O)O)CC1` [NATEGLINIDE], the Inhibition came out at 34.99%.
For `COc1nc(C)nc(Cl)c1NC1=NCCN1.Cl` [MOXONIDINE HYDROCHLORIDE], the Inhibition turned out to be 8.86%.
`Cl.Nc1nc2ccc(OC(F)(F)F)cc2s1` yielded an Inhibition of 24.39%.
Regarding `CCN1CCCC1CNC(=O)c1cc(S(=O)(=O)CC)c(N)cc1OC` (stereo not given) [AMISULPRIDE], the Inhibition amounted to 17.5%.
Compound `C/C=C1/[C@H]2C=C(C)C[C@]1(N)c1ccc(O)nc1C2` came in with an Inhibition of 21.75%.
For `NS(=O)(=O)c1cc2c(cc1C(F)(F)F)NC(Cc1ccccc1)NS2(=O)=O` (stereo not given) [BENDROFLUMETHIAZIDE] the value was 25.43%.
`CC(O)CO.N[C@@H](C(=O)N[C@@H]1C(=O)N2C(C(=O)O)=C(CSc3c[nH]nn3)CS[C@H]12)c1ccc(O)cc1` returned an Inhibition of 3.06%.
In turn, `CC1(C)O[C@@H]2[C@@H](CO[C@@]3(COS(N)(=O)=O)OC(C)(C)O[C@@H]23)O1` [TOPIRAMATE] registered an Inhibition of 7.83%.
`CC[C@H](C)C(=O)O[C@H]1C[C@@H](C)C=C2C=C[C@H](C)[C@H](CC[C@@H]3C[C@@H](O)CC(=O)O3)[C@H]21` [LOVASTATIN] displayed an Inhibition of 19.83%.
Take `CCOC(=O)C1=C(C)NC(C)=C(C(=O)OC)C1c1cccc([N+](=O)[O-])c1` (stereo not given) [NITRENDIPINE]: the Inhibition is 8.52%.
On to `CCCC1O[C@@H]2C[C@H]3[C@@H]4CCC5=CC(=O)C=C[C@]5(C)[C@H]4[C@@H](O)C[C@]3(C)[C@]2(C(=O)CO)O1` (stereo not given in full) [BUDESONIDE], for which the Inhibition turned out to be 21.59%.
For `CC1(C)O[C@@H]2C[C@H]3[C@@H]4C[C@H](F)C5=CC(=O)C=C[C@]5(C)[C@H]4[C@@H](O)C[C@]3(C)[C@]2(C(=O)CO)O1` [FLUNISOLIDE], the Inhibition is given as 20.9%.
For `NC(=O)c1cccnc1` [NIACINAMIDE] the value was 28.24%.
For the compound `CCCc1nc(C(C)(C)O)c(C(=O)OCc2oc(=O)oc2C)n1Cc1ccc(-c2ccccc2-c2nnn[nH]2)cc1` [OLMESARTAN MEDOXOMIL], the Inhibition turned out to be 21.83%.
`CC(=O)[C@@]1(O)CC[C@H]2[C@@H]3C[C@H](C)C4=CC(=O)CC[C@]4(C)[C@H]3CC[C@@]21C`: the Inhibition is recorded as 25.1%.
`CCN1CCC[C@H]1CNC(=O)c1cc(S(N)(=O)=O)ccc1OC` [LEVOSULPIRIDE] yielded an Inhibition of 30.02%.
`C=C1/C(=C\C=C2/CCC[C@]3(C)[C@@H]([C@H](C)/C=C/[C@@H](O)C4CC4)CC[C@@H]23)C[C@@H](O)C[C@@H]1O` [CALCIPOTRIENE] had an Inhibition of 8.96%.
Regarding `CC(=O)O.NCc1ccc(S(N)(=O)=O)cc1` [MAFENIDE ACETATE], the Inhibition is reported as 27.22%.
The compound `C[C@]12CC[C@@H]3c4ccc(O)cc4CC[C@H]3[C@@H]1CC[C@@H]2O` [ESTRADIOL] registered an Inhibition of 15.11%.
As for `COc1ccc2cc([C@H](C)C(=O)[O-])ccc2c1.[Na+]` [NAPROXEN SODIUM], the Inhibition was 16.35%.
In turn, `CC(C)(C)C(O)/C=C/c1ccc2c(c1)OCO2` (stereo not given) [STIRIPENTOL] gave an Inhibition of 15.26%.
For `CC(=O)/N=c1/sc(S(N)(=O)=O)nn1C` [METHAZOLAMIDE] the value was 8.04%; for `CCCc1nc2c(C)cc(-c3nc4ccccc4n3C)cc2n1Cc1ccc(-c2ccccc2C(=O)O)cc1`, 22.54%.
